Results reported in patent US10513547B2, “Peptides and combination of peptides and scaffolds thereof for use in immunotherapy against colorectal carcinoma (CRC) and other cancers” (Immatics Biotechnologies GmbH, priority 2015, dated 2019).

Tested on: HLA molecules from shock-frozen tissue samples (CRC, other tumors, normal tissues)
Assay: Identification and label-free relative LC-MS quantitation of HLA-presented tumor associated peptides (presentation profiles, XPRESIDENT)
Design: species or system human; key to Peptide Presentation (presentation score): very highly over-presented on tumors compared to a panel of normal tissues (+++); highly over-presented on tumors compared to a panel of normal tissues (++); over-presented on tumors compared to a panel of normal tissues (+)
Conditions: for Other relevant organs/diseases: additional tumor types: over-presented on more than 5% of measured tumor samples, or presented on more than 5% with ratio of geometric means tumor vs normal larger than 3; for Additional Entities (additional tumor types on which the peptide was found): over-presentation on more than 5% of the measured tumor samples, or presentation on more than 5% of the measured tumor samples with ratio of geometric means tumor vs normal tissues larger than 3; for Peptide Presentation (presentation score): over-presentation on tumors compared to a panel of normal tissues; for number of cancer tissues with detectable presentation of the peptide: all samples with detectable presentation, all tumor types

Substance | Other relevant organs/diseases | Additional Entities (additional tumor types on which the peptide was found) | Peptide Presentation (presentation score) | number of cancer tissues with detectable presentation of the peptide | number of normal tissues with detectable presentation of the peptide (normal tissue panel as in FIG. 1A-C)
191 (QLFSEIHNL; listed as Homo sapiens) [compound 191] | Brain, Liver | SCLC, Melanoma, Urinary bladder cancer, Gallbladder Cancer, Bile Duct Cancer, AML, NHL, PC |  |  | 
249 (ALYGRLEVV; listed as Homo sapiens) [compound 249] | MCC, Ovary, Esophagus |  | + |  | 
171 (RLQETEGMVAV; listed as Homo sapiens) [compound 171] | Liver, Leukocytes, MCC | Melanoma, OC | + |  | 
166 (GLLEARGILGL; listed as Homo sapiens) [compound 166] | Liver | Urinary bladder cancer, AML, NHL | + |  | 
32 (KLNTETFGV; listed as Homo sapiens) [compound 32] |  | GC, BRCA, Esophageal Cancer, AML | +++ |  | 
5 (WLFDDGGLTL; listed as Homo sapiens) [compound 5] |  |  | +++ |  | 
SEQ ID NO.: 22 (GLIDEVMVL; listed as Homo sapiens) |  |  |  | 6 | 1
161 (FLKNELDNV; listed as Homo sapiens) [compound 161] | Lung, Liver, Leukocytes, Breast, Melanoma, Ovary | Esophageal Cancer, Urinary bladder cancer, Uterine Cancer, AML, NHL | ++ |  | 
180 (NLLEIAPHL; listed as Homo sapiens) [compound 180] | Brain, Leukocytes, Breast | NSCLC, Melanoma, OC, Esophageal Cancer, Urinary bladder cancer, Uterine Cancer, Gallbladder Cancer, Bile Duct Cancer, AML | ++ |  | 
88 (KLDIKVETV; listed as Homo sapiens) [compound 88] | Lung, Kidney, Liver, Melanoma, Ovary, Esophagus | BRCA, Urinary bladder cancer | + |  | 
4 (RLAELTVDEFL; listed as Homo sapiens) [compound 4] | Lung, Ovary | CLL, Melanoma, Urinary bladder cancer, AML | +++ |  | 
213 (LLWAPTAQA; listed as Homo sapiens) [compound 213] |  |  | +++ |  | 
51 (QVWEIQHTV; listed as Homo sapiens) [compound 51] |  |  | ++ |  | 
31 (LLYGKYVSV; listed as Homo sapiens) [compound 31] | Lung, Kidney, Brain, Liver, Leukocytes, Ovary, Esophagus | SCLC, Melanoma, Urinary bladder cancer, Uterine Cancer | +++ |  | 
107 (ALLGGGPYML; listed as Homo sapiens) [compound 107] | Lung | Urinary bladder cancer, Gallbladder Cancer, Bile Duct Cancer |  |  | 
113 (ILYDLQQNL; listed as Homo sapiens) [compound 113] |  | SCLC, CLL, BRCA, Melanoma, Urinary bladder cancer, Uterine Cancer, Gallbladder Cancer, Bile Duct Cancer, AML, NHL | + |  | 
37 (GLFAGLGGAGA; listed as Homo sapiens) [compound 37] | Esophagus | BRCA, Melanoma, Urinary bladder cancer, Uterine Cancer, Gallbladder Cancer, Bile Duct Cancer | +++ |  | 
57 (NLLEKENYL; listed as Homo sapiens) [compound 57] | Ovary |  | ++ |  | 
237 (KLVEFDFLGA; listed as Homo sapiens) [compound 237] | Lung, Brain, Stomach, Liver, MCC, Ovary, Esophagus |  | ++ |  | 
206 (RIAGIRGIQGV; listed as Homo sapiens) [compound 206] | Lung, Kidney, Liver, Prostate, Ovary |  | ++ |  | 
103 (FLFGYPKRL; listed as Homo sapiens) [compound 103] | Brain, Liver, Prostate | NSCLC, SCLC, Melanoma, Urinary bladder cancer, Uterine Cancer, AML | + |  | 
41 (ILDDSFKLL; listed as Homo sapiens) [compound 41] |  |  | ++ |  | 
48 (FLDASDPAL; listed as Homo sapiens) [compound 48] | Kidney, Prostate |  | +++ |  | 

Substance | Other relevant organs/diseases | Additional Entities (additional tumor types on which the peptide was found) | Peptide Presentation (presentation score) | number of cancer tissues with detectable presentation of the peptide | number of normal tissues with detectable presentation of the peptide (normal tissue panel as in FIG. 1A-C)
232 (RLLDSVSRL; listed as Homo sapiens) [compound 232] | Lung, Kidney, Liver, Pancreas, Breast, Ovary, Esophagus |  | + |  | 
185 (VLYTGVVRV; listed as Homo sapiens) [compound 185] | Leukocytes, Melanoma, Ovary | SCLC, BRCA, Esophageal Cancer, AML, NHL | + |  | 
146 (ALSDETWGL; listed as Homo sapiens) [compound 146] | Kidney, Stomach, Pancreas, Breast, Ovary | SCLC, CLL, Esophageal Cancer, Urinary bladder cancer, Uterine Cancer, Gallbladder Cancer, Bile Duct Cancer | + |  | 
SEQ ID NO.: 142 (SLVQRVETI; listed as Homo sapiens) |  |  |  | 47 | 
62 (YLAPENGYL; listed as Homo sapiens) [compound 62] | Lung, Liver, Melanoma, Esophagus | SCLC, CLL, Urinary bladder cancer, Uterine Cancer, Gallbladder Cancer, Bile Duct Cancer, AML, NHL | ++ |  | 
246 (GLTDNIHLV; listed as Homo sapiens) [compound 246] | Lung, Kidney, Pancreas, Breast, Ovary, Esophagus |  | + |  | 
74 (YLMGFLHAV; listed as Homo sapiens) [compound 74] | Ovary | BRCA, Urinary bladder cancer | ++ |  | 
265 (LLDKKIGV; listed as Homo sapiens) [compound 265] | Kidney, Ovary, Esophagus |  |  |  | 
73 (YLFDIAVSM; listed as Homo sapiens) [compound 73] |  |  | ++ |  | 
201 (GSFNGALAAV; listed as Homo sapiens) [compound 201] | Brain, Pancreas |  | +++ |  | 
245 (QLIDYERQL; listed as Homo sapiens) [compound 245] | Lung, Kidney, Liver, Pancreas, Breast, Esophagus |  | + |  | 
45 (ALAELLHGA; listed as Homo sapiens) [compound 45] | Lung, Kidney, Brain, Liver, Prostate, Breast, Ovary | Melanoma, Urinary bladder cancer, Uterine Cancer, Gallbladder Cancer, Bile Duct Cancer | +++ |  | 
200 (SAVDFIRTL; listed as Homo sapiens) [compound 200] | Breast, Esophagus |  |  |  | 
27 (LLADEDSSYL; listed as Homo sapiens) [compound 27] |  |  | +++ |  | 
76 (YLIGEKQHYL; listed as Homo sapiens) [compound 76] | Liver |  |  |  | 
143 (KLSDVWKEL; listed as Homo sapiens) [compound 143] | Lung | Gallbladder Cancer, Bile Duct Cancer | +++ |  | 
235 (LLHEENFSV; listed as Homo sapiens) [compound 235] | Lung, Kidney, Liver, Ovary, Esophagus |  | ++ |  | 
162 (KLMDYIDEL; listed as Homo sapiens) [compound 162] | Brain, Esophagus | NSCLC, BRCA, Melanoma, Urinary bladder cancer, Gallbladder Cancer, Bile Duct Cancer, NHL | ++ |  | 
28 (ALTEIQEFI; listed as Homo sapiens) [compound 28] |  | NSCLC, Brain Cancer, HCC, BRCA, Melanoma, Esophageal Cancer, Urinary bladder cancer, Gallbladder Cancer, Bile Duct Cancer, AML, NHL |  |  | 
125 (KLGDFGLLVEL; listed as Homo sapiens) [compound 125] | Lung, Brain, Melanoma, Ovary, Esophagus | SCLC, Urinary bladder cancer, AML, PC | +++ |  | 
6 (FLAELPGSLSL; listed as Homo sapiens) [compound 6] | Lung, Liver, Leukocytes, Melanoma, Ovary | SCLC, Urinary bladder cancer, Uterine Cancer, Gallbladder Cancer, Bile Duct Cancer, AML, NHL | + |  | 
79 (SLAADQLLKL; listed as Homo sapiens) [compound 79] | Lung, Liver | Uterine Cancer |  |  | 
